Results are given in words; binding and its absence hold for the method and conditions named. Binding seen in cells or lysates may run through a third protein. A yes stands for co-enrichment or nearness to the bait. Other partners may have been found. Tags and fused reporters may be left off the sequences shown.

By UniProt entry, the sequences of proteins in these tests, tags left out.
UniProt O00505: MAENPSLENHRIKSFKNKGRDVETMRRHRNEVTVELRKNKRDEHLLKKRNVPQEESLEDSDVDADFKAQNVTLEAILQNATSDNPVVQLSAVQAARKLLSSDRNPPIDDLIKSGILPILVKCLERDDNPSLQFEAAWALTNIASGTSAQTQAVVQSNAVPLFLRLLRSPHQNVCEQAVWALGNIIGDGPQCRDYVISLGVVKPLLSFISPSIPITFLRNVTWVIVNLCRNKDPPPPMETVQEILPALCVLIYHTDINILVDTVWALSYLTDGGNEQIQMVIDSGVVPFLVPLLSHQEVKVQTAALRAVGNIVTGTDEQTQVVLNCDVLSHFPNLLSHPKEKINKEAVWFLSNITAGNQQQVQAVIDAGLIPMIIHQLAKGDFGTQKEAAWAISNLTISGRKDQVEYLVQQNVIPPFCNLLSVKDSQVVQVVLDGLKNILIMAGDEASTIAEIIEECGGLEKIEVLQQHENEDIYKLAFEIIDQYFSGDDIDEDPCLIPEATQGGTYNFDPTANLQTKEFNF
UniProt O00629: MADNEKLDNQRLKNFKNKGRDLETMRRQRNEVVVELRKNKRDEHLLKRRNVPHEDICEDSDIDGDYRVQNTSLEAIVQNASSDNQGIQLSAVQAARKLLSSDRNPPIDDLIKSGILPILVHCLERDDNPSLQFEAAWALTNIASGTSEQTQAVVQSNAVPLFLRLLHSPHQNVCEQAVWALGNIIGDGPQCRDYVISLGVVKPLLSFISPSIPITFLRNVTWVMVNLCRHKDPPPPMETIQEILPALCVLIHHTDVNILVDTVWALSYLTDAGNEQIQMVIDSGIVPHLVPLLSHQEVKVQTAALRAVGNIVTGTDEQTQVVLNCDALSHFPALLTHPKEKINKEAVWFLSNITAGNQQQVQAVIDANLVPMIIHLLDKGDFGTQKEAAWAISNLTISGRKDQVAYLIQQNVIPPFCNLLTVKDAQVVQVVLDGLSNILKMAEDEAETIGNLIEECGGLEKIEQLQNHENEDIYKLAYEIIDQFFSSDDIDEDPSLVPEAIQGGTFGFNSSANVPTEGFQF
UniProt P52294: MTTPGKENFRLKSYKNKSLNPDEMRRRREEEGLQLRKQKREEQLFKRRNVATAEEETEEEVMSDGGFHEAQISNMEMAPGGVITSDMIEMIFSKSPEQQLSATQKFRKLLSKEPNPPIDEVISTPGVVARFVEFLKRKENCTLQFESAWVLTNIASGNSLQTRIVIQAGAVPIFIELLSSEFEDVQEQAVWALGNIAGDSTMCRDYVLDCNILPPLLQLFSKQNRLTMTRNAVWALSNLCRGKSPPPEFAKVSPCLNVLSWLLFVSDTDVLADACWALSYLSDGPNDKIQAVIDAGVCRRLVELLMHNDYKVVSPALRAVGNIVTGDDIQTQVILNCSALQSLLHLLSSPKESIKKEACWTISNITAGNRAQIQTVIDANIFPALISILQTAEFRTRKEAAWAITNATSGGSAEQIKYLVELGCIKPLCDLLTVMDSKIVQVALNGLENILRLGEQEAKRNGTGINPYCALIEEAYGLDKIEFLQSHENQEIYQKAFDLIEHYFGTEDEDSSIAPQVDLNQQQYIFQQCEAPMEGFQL
UniProt P42224: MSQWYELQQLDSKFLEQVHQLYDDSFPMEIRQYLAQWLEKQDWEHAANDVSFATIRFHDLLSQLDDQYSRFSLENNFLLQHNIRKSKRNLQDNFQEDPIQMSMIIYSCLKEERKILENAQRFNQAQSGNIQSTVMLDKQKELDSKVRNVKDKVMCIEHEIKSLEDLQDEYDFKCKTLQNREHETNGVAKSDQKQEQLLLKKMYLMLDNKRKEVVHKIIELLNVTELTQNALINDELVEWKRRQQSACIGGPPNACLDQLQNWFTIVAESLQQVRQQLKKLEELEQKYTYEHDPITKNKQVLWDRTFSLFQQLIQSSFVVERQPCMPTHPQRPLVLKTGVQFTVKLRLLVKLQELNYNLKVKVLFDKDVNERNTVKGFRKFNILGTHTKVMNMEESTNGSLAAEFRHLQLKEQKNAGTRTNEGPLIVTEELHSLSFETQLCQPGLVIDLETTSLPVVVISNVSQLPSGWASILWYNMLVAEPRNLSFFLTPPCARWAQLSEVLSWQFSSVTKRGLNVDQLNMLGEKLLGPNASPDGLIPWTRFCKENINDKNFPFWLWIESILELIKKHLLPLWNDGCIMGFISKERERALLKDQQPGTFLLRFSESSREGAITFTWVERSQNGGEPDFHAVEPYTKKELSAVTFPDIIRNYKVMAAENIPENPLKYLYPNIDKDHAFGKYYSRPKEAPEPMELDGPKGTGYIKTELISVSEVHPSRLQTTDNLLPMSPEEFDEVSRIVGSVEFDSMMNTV

The assay concerns the target T1, HBoV1 non-structural protein NP1, Flag-tagged (human bocavirus 1 (HBoV1)) (UniProt Q3YPH5).
T1 sequence: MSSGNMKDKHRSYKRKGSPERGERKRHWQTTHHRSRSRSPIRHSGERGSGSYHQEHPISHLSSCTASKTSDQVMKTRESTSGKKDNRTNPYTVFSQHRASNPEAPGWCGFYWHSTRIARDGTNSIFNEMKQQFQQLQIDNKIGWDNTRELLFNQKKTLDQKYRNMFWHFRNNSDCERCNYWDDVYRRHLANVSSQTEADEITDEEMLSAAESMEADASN
Briefly: affinity purification with mass spectrometry; HEK293T cells transfected with Flag-tagged viral protein, IFNβ (400 U/mL) 12 h at 24 hpt; lysates with anti-Flag magnetic beads overnight; eluate identified by mass spectrometry.
Consider “KPNA3 (importin-α4) of HEK293T cells (from UniProt O00505 1-521)”, for which the binding result is “binds”.

Take “KPNA4 (importin-α3) of HEK293T cells (from UniProt O00629 1-521)”: the binding entry is on record as “binds”.

Take “KPNA6 (importin-α7) of HEK293T cells (from UniProt O60684 1-536)”: the binding result is reported as “binds”.

With “Karyopherin subunit alpha-1 (of HEK293T cells) (from UniProt P52294 1-538)”, the binding entry is given as “binds”.

As to “Signal transducer and activator of transcription 1 (of HEK293T cells) (from UniProt P42224 1-750)”, the binding entry was “binds”.

Source of the values: PMC12533952.
